From patent publication US12098154B2, “Inhibitors of cyclin-dependent kinases” (Dana-Farber Cancer Institute, Inc., priority 2015, dated 2024)

System: Jurkat cells
Test: Jurkat proliferation assay (CellTiter-Glo)
Format: cell-based
Details: Homo sapiens, 72 h, read-out: IC50 on Jurkat T-ALL cell proliferation, 72 hrs, CellTiter-Glo
Experimental: (§1) Jurkat cells were seeded at a density of 25,000 cells/well in 96-well plates. Cells were then treated with the indicated compounds in a 10-pt dose escalation format from 1 nM to 10 μM or DMSO control for 72 hours. After 72 hours, the cells were assayed using CellTiter-Glo Luminescent Cell Viability Assay (Promega) to determine cell viability by measuring the amount of ATP present in each sample cell population, which is an indicator of cell metabolic activity. Results were graphed as fraction of the DMSO control at 72 hours. All data points were performed in biological triplicate. Error bars are +/−SD.
as §1, with “72 hrs.” for “72 hours.”, “72 hrs,” for “72 hours, the”, “Results are” for “Results were”

CCc1cnn2c(NCc3ccc[n+]([O-])c3)cc(N3CCCC[C@H]3CCO)nc12 [dinaciclib, reference compound]
IC50: < 10 nM
